In patent publication US20240043493A1 (CASE WESTERN RESERVE UNIVERSITY, priority 2020, published 2024):
At least one peptide structure holds a part that was inferred or is arguable (an end, a ring closure or a residue). Positions of bridges follow the written chain, without caps; N, C: chain ends. No end group written: not given here. *: point of attachment. Palmitoyl = CCCCCCCCCCCCCCCC(=O)*

Tested on: male Sprague-Dawley rats rendered diabetic by treatment with streptozotocin (STZ)
Assay: Rat studies of blood-glucose lowering after subcutaneous injection in streptozotocin-diabetic rats
Type: in vivo
[1] = FIG. 2, acylated versus unmodified single-chain analogue
[2] = subcutaneous injection, formulation similar to Levemir (Lilly diluent pH 7.4), blood glucose up to 360 min

Substance: Palmitoyl-FVNQHLCGSHLVEALYLVCGERGFFYTPRTEEGPERGIVEQCCHSICSLEQLENYCN (disulfide 7-43, 19-56, 42-47) [acylated analogue]
- duration of activity [1]: marked prolongation in the duration of activity
- intrinsic potency (per nanomole) [1]: reduction in intrinsic potency
- duration of activity (FIG. 2, acylated versus unmodified single-chain analogue, listed as single-chain insulin analogue upon modification of the α-amino group of PheB1 by): marked prolongation
- biological activity relative to insulin detemir [2]: retain a proportion of the biological activity of insulin detemir
- duration of action relative to insulin detemir [2]: greater duration of action
